PubChem BioAssay AID602196, INSERM – 2012
Test: 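Genes whose knock-down alters cisplatin killing of lung cancer cells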. System: human A549 lung cancer cells. Reagents: siRNA pair against human genes. Time to read-out: 48 h transfection before cisplatin; time from cisplatin to read-out not stated. Conditions: cisplatin at a dose killing half of control-siRNA cells; exact dose and duration not given. Measurement: 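Shift in cisplatin death relative to control siRNA, from -50 (all cells die) to +50 (no cells die); siRNAs harmful on their own scored 0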. Scale: two-siRNA summed score (-2 to +2): higher = both siRNAs protect from cisplatin killing; -2 means both sensitise; mean protection from cisplatin (shift in death): higher = protection from cisplatin killing. Active means: 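siRNAs harmful alone (LDH or WST-1) get 0; others get +1 for less and -1 for more cisplatin killing; genes are active when the two siRNAs give the same sign, summing to ±2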. Meaning of the calls: active = both siRNAs shift cisplatin killing the same way; inactive = no consistent shift, or siRNA harmful alone.
Here is a random part of about 23,000 reagents tested. Over the whole deposit, 455 (2%) were called active. 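Active includes both protection and sensitisation; some change values fall well beyond the stated -50 to +50 range.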 A number with no mark means an inactive call. Not all columns of the deposit are shown. Not given: the amount of reagent.

OR5H1
- two-siRNA summed score (-2 to +2): 1
- mean protection from cisplatin (shift in death) (%): 22.8

GHRHR
- two-siRNA summed score (-2 to +2): 0
- mean protection from cisplatin (shift in death) (%): 9

LOC137485
- two-siRNA summed score (-2 to +2): 0
- mean protection from cisplatin (shift in death) (%): -2.6

RUSC1
- two-siRNA summed score (-2 to +2): 0
- mean protection from cisplatin (shift in death) (%): 0.3

RAMAC
- two-siRNA summed score (-2 to +2): 0
- mean protection from cisplatin (shift in death) (%): 2.2

MASTL
- two-siRNA summed score (-2 to +2): 0
- mean protection from cisplatin (shift in death) (%): -1.6

CDH11
- two-siRNA summed score (-2 to +2): 0
- mean protection from cisplatin (shift in death) (%): -5.7

TMEM80
- two-siRNA summed score (-2 to +2): 1
- mean protection from cisplatin (shift in death) (%): 14.2

OR56A3
- two-siRNA summed score (-2 to +2): 0
- mean protection from cisplatin (shift in death) (%): -8.7

TRO
- two-siRNA summed score (-2 to +2): 0
- mean protection from cisplatin (shift in death) (%): 7.8

OR5B12
- two-siRNA summed score (-2 to +2): 0
- mean protection from cisplatin (shift in death) (%): 2.5

ATP13A1
- two-siRNA summed score (-2 to +2): -1
- mean protection from cisplatin (shift in death) (%): -1.7

ACKR5
- two-siRNA summed score (-2 to +2): 1
- mean protection from cisplatin (shift in death) (%): 7.6

PRPF40B
- two-siRNA summed score (-2 to +2): 0
- mean protection from cisplatin (shift in death) (%): 0.1

CEP68
- two-siRNA summed score (-2 to +2): 1
- mean protection from cisplatin (shift in death) (%): 2.1

RFTN2
- two-siRNA summed score (-2 to +2): 0
- mean protection from cisplatin (shift in death) (%): 6.8

USE1
- two-siRNA summed score (-2 to +2): 0
- mean protection from cisplatin (shift in death) (%): 5.3

CYP1B1
- two-siRNA summed score (-2 to +2): 0
- mean protection from cisplatin (shift in death) (%): -12.6

CELA2B
- two-siRNA summed score (-2 to +2): -1
- mean protection from cisplatin (shift in death) (%): -12.5

CRMA
- two-siRNA summed score (-2 to +2): 0
- mean protection from cisplatin (shift in death) (%): -6.7

LOC440336
- two-siRNA summed score (-2 to +2): 2 (active)
- mean protection from cisplatin (shift in death) (%): 9.7

RHD
- two-siRNA summed score (-2 to +2): 0
- mean protection from cisplatin (shift in death) (%): 2

UBE2K
- two-siRNA summed score (-2 to +2): 0
- mean protection from cisplatin (shift in death) (%): 18.9

TEKT3
- two-siRNA summed score (-2 to +2): 0
- mean protection from cisplatin (shift in death) (%): -1.2

SF1
- two-siRNA summed score (-2 to +2): 0
- mean protection from cisplatin (shift in death) (%): 6.8

PTCHD3P1
- two-siRNA summed score (-2 to +2): 0
- mean protection from cisplatin (shift in death) (%): 0.8

LOC387937
- two-siRNA summed score (-2 to +2): 0
- mean protection from cisplatin (shift in death) (%): -1.1

CLMB
- two-siRNA summed score (-2 to +2): 0
- mean protection from cisplatin (shift in death) (%): 3.7

KIAA0565
- two-siRNA summed score (-2 to +2): 1
- mean protection from cisplatin (shift in death) (%): 11

LOC440420
- two-siRNA summed score (-2 to +2): 0
- mean protection from cisplatin (shift in death) (%): 1.1

GNPTG
- two-siRNA summed score (-2 to +2): 0
- mean protection from cisplatin (shift in death) (%): 7

4 of these entries, reformatted:
{"gene symbol":"MASTL","two-siRNA summed score (-2 to +2)":0,"mean protection from cisplatin (shift in death) (%)":-1.6}
{"gene symbol":"CDH11","two-siRNA summed score (-2 to +2)":0,"mean protection from cisplatin (shift in death) (%)":-5.7}
{"gene symbol":"TMEM80","two-siRNA summed score (-2 to +2)":1,"mean protection from cisplatin (shift in death) (%)":14.2}
{"gene symbol":"OR56A3","two-siRNA summed score (-2 to +2)":0,"mean protection from cisplatin (shift in death) (%)":-8.7}
